Assay results reported in patent US9045390B2, “Haloalkylmethyleneoxyphenyl-substituted ketoenols” (Bayer CropScience AG, priority 2009, dated 2015).
Some entries share one result that the patent states for a list of compounds. For some assays here: At least one compound was matched to its structure with a doubt left.

What was measured:
Format in all cases: in vivo
[1] = test system: green peach aphid (Myzus persicae); test: Myzus test (MYZUPE spray treatment); settings: application rate 500 g/ha, Chinese cabbage leaf discs
Procedure: Myzus Test (MYZUPE Spray Treatment)
To prepare an appropriate active ingredient preparation, 1 part by weight of active ingredient is mixed with the stated amounts of solvent and emulsifier, and the concentrate is diluted with emulsifier-containing water to the desired concentration.
Discs of Chinese cabbage (Brassica pekinensis) infected by all stages of the green peach aphid (Myzus persicae) are sprayed with an active ingredient preparation of the desired concentration.
After the desired time, the effect in % is determined. 100% means that all of the aphids have been killed; 0% means that none of the aphids have been killed.

Alopecurus myosuroides [2] = test: Herbicidal pre-emergence action; settings: approx. three weeks
Echinocloa crus-galli [3] = test: Herbicidal pre-emergence action; settings: approx. three weeks
Lolium multiflorum [4] = test: Herbicidal pre-emergence action; settings: approx. three weeks
Setaria viridis [5] = test: Herbicidal pre-emergence action; settings: approx. three weeks
Alopecurus myosuroides [6] = test: Herbicidal post-emergence action; settings: 80 g/ha, about three weeks
Avena fatua = test: Herbicidal post-emergence action; settings: 80 g/ha, about three weeks
Echinocloa crus-galli [7] = test: Herbicidal post-emergence action; settings: 80 g/ha, about three weeks
Lolium multiflorum [8] = test: Herbicidal post-emergence action; settings: 80 g/ha, about three weeks
Setaria viridis [9] = test: Herbicidal post-emergence action; settings: 80 g/ha, about three weeks
[10] = test system: two-spotted spider mite (Tetranychus urticae); test: Tetranychus test; OP-resistant (TETRUR spray treatment); settings: application rate 100 g/ha, french bean leaf discs
[11] = test system: larvae of the mustard beetle (Phaedon cochleariae); test: Phaedon test (PHAECO spray treatment); settings: application rate 500 g/ha, Chinese cabbage leaf discs

Cc1ccc(OCC(F)(F)F)cc1C1=C(O)C2(CCCC2)OC1=O [Example I-2-a-1]
≥ 80%: effect in % (aphids killed) [1]

COC1CCC2(CC1)OC(=O)C(c1cccc(OCC(F)(F)F)c1C)=C2O (centres unmarked) [Example I-2-a-3]
≥ 80%: effect in % (aphids killed) [1]

Cc1cc(OCC(F)(F)F)cc(C)c1C1=C(O)C2(CCOCC2)OC1=O [Example I-2-a-2]
≥ 80%: effect in % (aphids killed) [1]

CCc1cc(OCC(F)(F)F)cc(C)c1C1=C(O)C2(CCC(COC)C2)NC1=O (centres unmarked) [Example I-1-a-35]
≥ 80%: effect in % (aphids killed) [1] | herbicidal effect in per cent (Alopecurus myosuroides [2]; 320 g/ha a.i.) | herbicidal effect in per cent (Echinocloa crus-galli [3]; 320 g/ha a.i.) | herbicidal effect in per cent (Lolium multiflorum [4]; 320 g/ha a.i.) | herbicidal effect in per cent (Setaria viridis [5]; 320 g/ha a.i.)

CCc1cc(OCC(F)(F)F)cc(CC)c1-c1c(O)n2n(c1=O)CCOCC2 [Example I-8-a-1]
≥ 80%: herbicidal effect in per cent (Alopecurus myosuroides [6]) | herbicidal effect in per cent (Avena fatua) | herbicidal effect in per cent (Echinocloa crus-galli [7]) | herbicidal effect in per cent (Lolium multiflorum [8]) | herbicidal effect in per cent (Setaria viridis [9])

CCc1cc(OCC(F)(F)F)cc(C)c1C1=C(O)C2CCCCN2C1=O (centres unmarked) [Example I-1-a-22]
≥ 80%: herbicidal effect in per cent (Alopecurus myosuroides [2]; 320 g/ha a.i.) | herbicidal effect in per cent (Echinocloa crus-galli [3]; 320 g/ha a.i.) | herbicidal effect in per cent (Lolium multiflorum [4]; 320 g/ha a.i.) | herbicidal effect in per cent (Setaria viridis [5]; 320 g/ha a.i.)

COC1CCC2(CC1)NC(=O)C(c1c(C)ccc(OCC(F)(F)F)c1C)=C2O (centres unmarked) [Example I-1-a-29]
≥ 80%: effect in % (aphids killed) [1]

Cc1ccc(OCC(F)(F)F)cc1C1=C(OC(=O)C(C)(C)C)C2(CCCC2)OC1=O [Example I-2-b-1]
≥ 80%: effect in % (spider mites killed) [10]

COC1CCC2(CC1)NC(=O)C(c1ccc(OCC(F)(F)F)cc1C)=C2O (centres unmarked) [Example I-1-a-42]
≥ 80%: effect in % (aphids killed) [1]

CCc1cc(OCC(F)(F)F)cc(CC)c1C1=C(O)C(C)(C)NC1=O [Example I-1-a-9]
≥ 80%: herbicidal effect in per cent (Alopecurus myosuroides [2]; 320 g/ha a.i.) | herbicidal effect in per cent (Echinocloa crus-galli [3]; 320 g/ha a.i.) | herbicidal effect in per cent (Lolium multiflorum [4]; 320 g/ha a.i.) | herbicidal effect in per cent (Setaria viridis [5]; 320 g/ha a.i.) | herbicidal effect in per cent (Alopecurus myosuroides [6]) | herbicidal effect in per cent (Avena fatua) | herbicidal effect in per cent (Echinocloa crus-galli [7]) | herbicidal effect in per cent (Lolium multiflorum [8]) | herbicidal effect in per cent (Setaria viridis [9])

CCc1cc(OCC(F)(F)F)cc(C)c1C1=C(O)C2(CCCC(COC)C2)NC1=O (mixture of isomers) [Example I-1-a-12]
≥ 80%: effect in % (aphids killed) [1] | herbicidal effect in per cent (Alopecurus myosuroides [2]; 320 g/ha a.i.) | herbicidal effect in per cent (Echinocloa crus-galli [3]; 320 g/ha a.i.) | herbicidal effect in per cent (Lolium multiflorum [4]; 320 g/ha a.i.) | herbicidal effect in per cent (Setaria viridis [5]; 320 g/ha a.i.)

CCc1cc(OCC(F)(F)F)cc(C)c1-c1c(O)n2n(c1=O)CCOCC2 [Example I-8-a-2]
≥ 80%: effect in % (aphids killed) [1] | effect in % (spider mites killed) [10]

CCCCOC1CCCC2(C1)NC(=O)C(c1c(C)cc(OCC(F)(F)F)cc1CC)=C2O (centres unmarked) [Example I-1-a-15]
≥ 80%: effect in % (aphids killed) [1] | effect in % (beetle larvae killed) [11]

COCC1CCC2(C1)NC(=O)C(c1cc(OCC(F)(F)F)ccc1C)=C2O (centres unmarked) [Example I-1-a-44]
≥ 80%: effect in % (aphids killed) [1]

CCCCOC1CCCC2(C1)NC(=O)C(c1c(C)cc(OCC(F)(F)F)cc1C)=C2OC(=O)OCC (centres unmarked) [Example I-1-c-3]
≥ 80%: effect in % (aphids killed) [1] | effect in % (spider mites killed) [10] | herbicidal effect in per cent (Alopecurus myosuroides [2]; 320 g/ha a.i.) | herbicidal effect in per cent (Echinocloa crus-galli [3]; 320 g/ha a.i.) | herbicidal effect in per cent (Lolium multiflorum [4]; 320 g/ha a.i.) | herbicidal effect in per cent (Setaria viridis [5]; 320 g/ha a.i.)

CCc1cc(OCC(F)(F)F)cc(C)c1C1=C(O)C2(CCC(COC)C2)NC1=O (centres unmarked) [Example I-1-a-41]
≥ 80%: herbicidal effect in per cent (Alopecurus myosuroides [6]) | herbicidal effect in per cent (Avena fatua) | herbicidal effect in per cent (Echinocloa crus-galli [7]) | herbicidal effect in per cent (Lolium multiflorum [8]) | herbicidal effect in per cent (Setaria viridis [9])

CCc1cc(OCC(F)(F)F)cc(C)c1C1=C(O)C2CC3(CN2C1=O)OCCO3 (racemic) [Example I-1-a-46]
≥ 80%: effect in % (aphids killed) [1]

COC1(C)CCC2(CC1)NC(=O)C(c1c(C)ccc(OCC(F)(F)F)c1C)=C2O (centres unmarked) [Example I-1-a-43]
≥ 80%: effect in % (aphids killed) [1]

CCOC(=O)OC1=C(c2c(C)cc(OCC(F)(F)F)cc2C)C(=O)NC12CCCC(OCC)C2 (centres unmarked) [Example I-1-c-2]
≥ 80%: effect in % (aphids killed) [1] | effect in % (spider mites killed) [10] | herbicidal effect in per cent (Alopecurus myosuroides [2]; 320 g/ha a.i.) | herbicidal effect in per cent (Echinocloa crus-galli [3]; 320 g/ha a.i.) | herbicidal effect in per cent (Lolium multiflorum [4]; 320 g/ha a.i.) | herbicidal effect in per cent (Setaria viridis [5]; 320 g/ha a.i.)

CCOC(=O)Oc1c(-c2c(CC)cc(OCC(F)(F)F)cc2CC)c(=O)n2n1CCOCC2 [Example I-8-c-3]
≥ 80%: herbicidal effect in per cent (Alopecurus myosuroides [6]) | herbicidal effect in per cent (Avena fatua) | herbicidal effect in per cent (Echinocloa crus-galli [7]) | herbicidal effect in per cent (Lolium multiflorum [8]) | herbicidal effect in per cent (Setaria viridis [9])

CCc1cc(OCC(F)(F)F)cc(C)c1-c1c(OC(=O)C(C)C)n2n(c1=O)CCOCC2 [Example I-8-b-3]
≥ 80%: effect in % (aphids killed) [1] | effect in % (spider mites killed) [10]

CCOC(=O)Oc1c(-c2c(C)cc(OCC(F)(F)F)cc2CC)c(=O)n2n1CCCC2 [Example I-8-c-1]
≥ 80%: effect in % (spider mites killed) [10] | herbicidal effect in per cent (Alopecurus myosuroides [6]) | herbicidal effect in per cent (Avena fatua) | herbicidal effect in per cent (Echinocloa crus-galli [7]) | herbicidal effect in per cent (Lolium multiflorum [8]) | herbicidal effect in per cent (Setaria viridis [9])

CCc1cc(OCC(F)(F)F)cc(C)c1C1=C(O)C(C)(CC)NC1=O (centres unmarked) [Example I-1-a-11]
≥ 80%: effect in % (beetle larvae killed) [11]

CCCCOC1CCCC2(C1)NC(=O)C(c1c(Cl)cc(OCC(F)(F)F)cc1CC)=C2O (centres unmarked) [Example I-1-a-24]
≥ 80%: effect in % (aphids killed) [1]

Cc1cc(OCC(F)(F)F)cc(C)c1C1=C(O)C2CCCN2C1=O (centres unmarked) [Example I-1-a-2]
≥ 80%: effect in % (spider mites killed) [10] | herbicidal effect in per cent (Alopecurus myosuroides [2]; 80 g/ha a.i.) | herbicidal effect in per cent (Echinocloa crus-galli [3]; 80 g/ha a.i.) | herbicidal effect in per cent (Lolium multiflorum [4]; 80 g/ha a.i.) | herbicidal effect in per cent (Setaria viridis [5]; 80 g/ha a.i.)

CCc1cc(OCC(F)(F)F)cc(C)c1C1=C(O)C2(CCC(C)(OC)CC2)NC1=O (centres unmarked) [Example I-1-a-37]
≥ 80%: effect in % (aphids killed) [1] | herbicidal effect in per cent (Alopecurus myosuroides [2]; 320 g/ha a.i.) | herbicidal effect in per cent (Echinocloa crus-galli [3]; 320 g/ha a.i.) | herbicidal effect in per cent (Lolium multiflorum [4]; 320 g/ha a.i.) | herbicidal effect in per cent (Setaria viridis [5]; 320 g/ha a.i.) | herbicidal effect in per cent (Alopecurus myosuroides [6]) | herbicidal effect in per cent (Avena fatua) | herbicidal effect in per cent (Echinocloa crus-galli [7]) | herbicidal effect in per cent (Lolium multiflorum [8]) | herbicidal effect in per cent (Setaria viridis [9])

CCc1cc(OCC(F)(F)F)ccc1C1=C(O)C2(CCC(OC)CC2)NC1=O (centres unmarked) [Example I-1-a-23]
≥ 80%: effect in % (aphids killed) [1] | effect in % (beetle larvae killed) [11]

Cc1cc(OCC(F)(F)F)cc(C)c1-c1c(OC(=O)C(C)C)n2n(c1=O)CCCC2 [Example I-8-b-5]
≥ 80%: effect in % (aphids killed) [1] | effect in % (spider mites killed) [10]

CCOC(=O)Oc1c(-c2c(C)cc(OCC(F)(F)F)cc2C)c(=O)n2n1CCOCC2 [Example I-8-c-5]
≥ 80%: herbicidal effect in per cent (Alopecurus myosuroides [6]) | herbicidal effect in per cent (Avena fatua) | herbicidal effect in per cent (Echinocloa crus-galli [7]) | herbicidal effect in per cent (Lolium multiflorum [8]) | herbicidal effect in per cent (Setaria viridis [9])

CCc1cc(OCC(F)(F)F)cc(C)c1C1=C(O)C2(CCC(COC)CC2)NC1=O (mixture of isomers) [Example I-1-a-40]
≥ 80%: effect in % (aphids killed) [1] | herbicidal effect in per cent (Alopecurus myosuroides [2]; 320 g/ha a.i.) | herbicidal effect in per cent (Echinocloa crus-galli [3]; 320 g/ha a.i.) | herbicidal effect in per cent (Lolium multiflorum [4]; 320 g/ha a.i.) | herbicidal effect in per cent (Setaria viridis [5]; 320 g/ha a.i.) | herbicidal effect in per cent (Alopecurus myosuroides [6]) | herbicidal effect in per cent (Avena fatua) | herbicidal effect in per cent (Echinocloa crus-galli [7]) | herbicidal effect in per cent (Lolium multiflorum [8]) | herbicidal effect in per cent (Setaria viridis [9])
